Earlier results, collected in US12144889B2, “Methods of treating allergic conjunctivitis” (OCULAR THERAPEUTIX, INC., priority 2020, dated 2024).
At least one structure is not confirmed: it was looked up by name or label, or the drawing left a doubt.

Settings: oral, cited from earlier work

For `C[C@H]1C[C@@H]2[C@H]([C@@H](O)C[C@@]3(C)[C@H]2CC[C@]3(O)C(=O)CO)[C@@]2(C)C=CC(=O)C=C12` [Methylprednisolone], the “Equivalent Dose” value is given as 4 mg and the “Relative Potency” value (with reference to cortisol) is given as 5-7.5.
In the case of `C[C@H]1C[C@H]2[C@@H]3CCC4=CC(=O)C=C[C@]4(C)[C@@]3(F)[C@@H](O)C[C@]2(C)[C@@]1(O)C(=O)CO` [Betamethasone], the “Equivalent Dose” value is given as 0.8 mg.
